log2 fold change data for 12 targets are collected here from the supplement of paper PMC12819154, “High-throughput peptide-centric local stability assay extends protein–ligand identification to membrane proteins, tissues and bacteria” (Nature Structural & Molecular Biology, 2025).

Sequences of proteins named here, by UniProt entry; tags and fusion partners are left off. A change or cut given only in a name is not applied to a line headed by its entry.
UniProt Q62148: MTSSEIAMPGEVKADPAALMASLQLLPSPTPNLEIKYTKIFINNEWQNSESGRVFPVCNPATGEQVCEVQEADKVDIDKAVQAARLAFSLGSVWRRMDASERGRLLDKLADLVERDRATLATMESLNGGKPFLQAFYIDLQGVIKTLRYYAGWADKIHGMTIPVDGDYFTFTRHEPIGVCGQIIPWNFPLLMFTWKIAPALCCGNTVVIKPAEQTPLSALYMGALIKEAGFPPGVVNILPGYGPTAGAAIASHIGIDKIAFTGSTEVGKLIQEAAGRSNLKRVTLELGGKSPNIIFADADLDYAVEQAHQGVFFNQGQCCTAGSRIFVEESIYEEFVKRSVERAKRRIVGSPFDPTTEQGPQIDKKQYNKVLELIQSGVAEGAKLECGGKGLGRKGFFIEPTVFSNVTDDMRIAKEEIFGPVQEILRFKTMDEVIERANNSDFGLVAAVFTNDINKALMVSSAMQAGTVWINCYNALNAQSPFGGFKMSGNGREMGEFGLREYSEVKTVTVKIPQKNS
UniProt Q62074: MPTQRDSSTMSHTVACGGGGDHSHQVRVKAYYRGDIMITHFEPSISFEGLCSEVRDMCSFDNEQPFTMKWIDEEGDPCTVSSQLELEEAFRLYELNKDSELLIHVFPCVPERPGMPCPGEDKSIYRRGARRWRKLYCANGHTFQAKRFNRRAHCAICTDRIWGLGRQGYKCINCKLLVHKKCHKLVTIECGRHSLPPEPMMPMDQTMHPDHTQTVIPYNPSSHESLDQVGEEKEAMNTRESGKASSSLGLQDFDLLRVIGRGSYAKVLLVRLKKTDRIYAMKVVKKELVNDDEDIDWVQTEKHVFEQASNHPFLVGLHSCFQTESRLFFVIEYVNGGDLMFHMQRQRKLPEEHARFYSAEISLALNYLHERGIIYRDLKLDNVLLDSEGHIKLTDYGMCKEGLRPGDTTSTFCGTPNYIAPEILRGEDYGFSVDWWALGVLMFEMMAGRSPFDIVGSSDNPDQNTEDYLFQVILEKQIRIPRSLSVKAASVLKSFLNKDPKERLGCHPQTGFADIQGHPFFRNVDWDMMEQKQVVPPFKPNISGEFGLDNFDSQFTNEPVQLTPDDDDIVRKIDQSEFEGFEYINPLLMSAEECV
UniProt Q61851, whole entry, looked up: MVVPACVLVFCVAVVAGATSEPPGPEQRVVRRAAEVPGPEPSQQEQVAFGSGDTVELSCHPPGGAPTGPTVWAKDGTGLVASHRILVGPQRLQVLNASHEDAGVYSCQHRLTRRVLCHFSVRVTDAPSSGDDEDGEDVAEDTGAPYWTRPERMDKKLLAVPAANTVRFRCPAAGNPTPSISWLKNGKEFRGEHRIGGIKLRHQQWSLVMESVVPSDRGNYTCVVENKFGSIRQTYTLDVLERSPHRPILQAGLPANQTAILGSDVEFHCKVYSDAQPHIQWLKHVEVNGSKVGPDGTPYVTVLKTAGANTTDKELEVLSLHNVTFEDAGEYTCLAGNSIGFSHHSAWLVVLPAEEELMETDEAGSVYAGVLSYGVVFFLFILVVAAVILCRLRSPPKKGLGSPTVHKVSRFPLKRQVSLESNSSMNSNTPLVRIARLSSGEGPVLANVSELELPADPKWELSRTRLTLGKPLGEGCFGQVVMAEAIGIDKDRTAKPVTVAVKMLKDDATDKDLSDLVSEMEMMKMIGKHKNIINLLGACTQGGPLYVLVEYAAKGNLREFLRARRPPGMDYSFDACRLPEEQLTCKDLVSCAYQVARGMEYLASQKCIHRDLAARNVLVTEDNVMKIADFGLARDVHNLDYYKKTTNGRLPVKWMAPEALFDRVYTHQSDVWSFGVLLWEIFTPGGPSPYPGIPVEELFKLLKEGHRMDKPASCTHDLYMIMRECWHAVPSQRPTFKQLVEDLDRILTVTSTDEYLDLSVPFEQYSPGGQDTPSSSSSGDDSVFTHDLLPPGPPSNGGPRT
UniProt Q62189, whole entry: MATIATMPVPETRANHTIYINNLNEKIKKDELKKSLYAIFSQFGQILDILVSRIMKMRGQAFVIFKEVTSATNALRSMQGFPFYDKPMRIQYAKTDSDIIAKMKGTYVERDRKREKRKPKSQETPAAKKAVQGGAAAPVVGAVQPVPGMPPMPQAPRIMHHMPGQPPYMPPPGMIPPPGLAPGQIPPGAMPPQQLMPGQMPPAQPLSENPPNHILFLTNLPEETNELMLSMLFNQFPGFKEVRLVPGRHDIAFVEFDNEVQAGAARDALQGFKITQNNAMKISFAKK
UniProt Q62264: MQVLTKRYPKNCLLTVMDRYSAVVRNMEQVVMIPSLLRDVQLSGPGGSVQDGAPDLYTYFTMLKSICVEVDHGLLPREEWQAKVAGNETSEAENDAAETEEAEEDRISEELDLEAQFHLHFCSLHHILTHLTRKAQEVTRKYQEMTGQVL
UniProt Q61334: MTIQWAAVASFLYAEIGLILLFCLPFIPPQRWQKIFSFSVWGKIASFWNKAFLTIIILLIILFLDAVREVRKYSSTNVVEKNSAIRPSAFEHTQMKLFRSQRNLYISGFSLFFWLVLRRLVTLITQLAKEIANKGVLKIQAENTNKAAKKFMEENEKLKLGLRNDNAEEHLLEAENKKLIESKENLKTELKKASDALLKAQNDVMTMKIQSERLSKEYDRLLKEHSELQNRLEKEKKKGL
UniProt Q62178: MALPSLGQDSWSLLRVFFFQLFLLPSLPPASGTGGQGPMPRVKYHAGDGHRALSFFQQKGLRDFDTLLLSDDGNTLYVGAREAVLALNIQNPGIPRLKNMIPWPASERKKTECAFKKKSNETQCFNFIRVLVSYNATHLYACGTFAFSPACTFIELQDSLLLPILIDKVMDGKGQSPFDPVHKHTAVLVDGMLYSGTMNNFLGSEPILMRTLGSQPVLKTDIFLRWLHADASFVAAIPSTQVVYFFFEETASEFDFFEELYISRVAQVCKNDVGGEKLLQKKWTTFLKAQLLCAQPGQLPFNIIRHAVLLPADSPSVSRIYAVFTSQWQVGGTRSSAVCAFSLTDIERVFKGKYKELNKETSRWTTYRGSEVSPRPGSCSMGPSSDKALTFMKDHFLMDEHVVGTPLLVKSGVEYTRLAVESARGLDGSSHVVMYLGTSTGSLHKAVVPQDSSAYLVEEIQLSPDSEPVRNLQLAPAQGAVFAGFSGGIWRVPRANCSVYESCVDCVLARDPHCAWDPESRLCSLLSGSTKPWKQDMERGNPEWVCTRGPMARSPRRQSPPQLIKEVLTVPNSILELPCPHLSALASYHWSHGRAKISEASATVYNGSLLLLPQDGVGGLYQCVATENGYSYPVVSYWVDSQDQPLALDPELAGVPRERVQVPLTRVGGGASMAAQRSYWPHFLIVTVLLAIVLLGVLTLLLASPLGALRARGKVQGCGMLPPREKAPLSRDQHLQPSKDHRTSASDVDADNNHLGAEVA
UniProt Q64442: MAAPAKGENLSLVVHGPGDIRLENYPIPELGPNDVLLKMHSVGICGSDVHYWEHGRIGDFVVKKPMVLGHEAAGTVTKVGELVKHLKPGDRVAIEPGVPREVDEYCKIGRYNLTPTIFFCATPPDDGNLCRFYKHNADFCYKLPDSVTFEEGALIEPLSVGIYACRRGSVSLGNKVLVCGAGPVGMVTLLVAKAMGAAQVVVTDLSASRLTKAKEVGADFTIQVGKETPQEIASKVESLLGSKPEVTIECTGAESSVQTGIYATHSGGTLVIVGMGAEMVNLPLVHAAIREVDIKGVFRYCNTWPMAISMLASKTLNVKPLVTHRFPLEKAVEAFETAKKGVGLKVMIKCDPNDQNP
UniProt Q62377: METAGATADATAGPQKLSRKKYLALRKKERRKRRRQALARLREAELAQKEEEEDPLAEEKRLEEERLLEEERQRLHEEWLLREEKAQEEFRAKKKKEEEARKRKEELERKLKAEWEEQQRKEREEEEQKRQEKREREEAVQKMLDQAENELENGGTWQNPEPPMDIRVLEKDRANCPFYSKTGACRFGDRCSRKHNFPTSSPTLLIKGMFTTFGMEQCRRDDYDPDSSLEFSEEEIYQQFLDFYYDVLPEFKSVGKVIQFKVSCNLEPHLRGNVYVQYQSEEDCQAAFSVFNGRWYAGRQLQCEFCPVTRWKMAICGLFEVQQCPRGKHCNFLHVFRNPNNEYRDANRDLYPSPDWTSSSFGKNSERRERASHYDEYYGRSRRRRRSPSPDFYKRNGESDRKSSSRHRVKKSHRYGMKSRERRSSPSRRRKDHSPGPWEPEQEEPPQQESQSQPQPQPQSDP
UniProt Q61581: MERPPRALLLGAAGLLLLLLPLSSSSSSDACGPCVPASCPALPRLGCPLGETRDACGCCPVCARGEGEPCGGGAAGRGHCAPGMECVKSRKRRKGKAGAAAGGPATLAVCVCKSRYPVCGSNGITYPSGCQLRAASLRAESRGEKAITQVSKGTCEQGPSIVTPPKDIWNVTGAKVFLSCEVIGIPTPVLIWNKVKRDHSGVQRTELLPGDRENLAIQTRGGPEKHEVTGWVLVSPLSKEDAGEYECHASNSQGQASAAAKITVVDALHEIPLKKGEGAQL
UniProt Q64092, whole entry: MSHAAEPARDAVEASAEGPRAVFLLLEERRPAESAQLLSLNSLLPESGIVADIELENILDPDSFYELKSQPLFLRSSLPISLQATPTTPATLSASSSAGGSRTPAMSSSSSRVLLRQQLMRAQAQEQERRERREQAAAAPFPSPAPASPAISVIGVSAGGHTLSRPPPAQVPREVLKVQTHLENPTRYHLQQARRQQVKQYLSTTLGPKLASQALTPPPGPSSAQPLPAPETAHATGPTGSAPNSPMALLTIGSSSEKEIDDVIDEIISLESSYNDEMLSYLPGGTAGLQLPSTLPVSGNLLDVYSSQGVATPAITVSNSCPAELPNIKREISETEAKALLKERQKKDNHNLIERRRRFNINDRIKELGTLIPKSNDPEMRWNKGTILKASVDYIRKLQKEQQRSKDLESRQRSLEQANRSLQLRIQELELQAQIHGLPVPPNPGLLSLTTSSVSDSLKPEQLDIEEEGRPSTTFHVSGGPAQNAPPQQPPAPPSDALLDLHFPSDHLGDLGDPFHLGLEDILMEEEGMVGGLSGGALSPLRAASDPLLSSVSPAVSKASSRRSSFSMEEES

The other results are listed elsewhere or left out. Small differences around the control level are noise.

Compound in the test: CN[C@@H]1C[C@H]2O[C@@](C)([C@@H]1OC)n1c3ccccc3c3c4c(c5c6ccccc6n2c5c31)C(=O)NC4 [staurosporine]
In words: log2 fold change of tryptic peptide abundance, ligand vs vehicle (limited proteolysis) (log2 ratio); higher = more trypsin-susceptible (destabilized). The conditions noted are these: ligand concentration: 20 uM; sample: mouse liver crude lysate; replicate design: treated separately.
As for “UniProt Q62148 (peptide sequence: RMDASER, peptide start residue: 97)”, the log2 fold change is 0.183.

In the case of “UniProt Q62245 (peptide sequence: MEEFIGTVR, peptide start residue: 714)”, the log2 fold change worked out at 0.253.

As for “UniProt Q62074 (peptide sequence: LVTIECGR, peptide start residue: 185)”, the log2 fold change turned out to be 0.509.

Consider “UniProt Q61851 (peptide sequence: LLAVPAANTVR, peptide start residue: 157)”, for which the log2 fold change came to 0.0848.

Consider “UniProt Q62189 (peptide sequence: TDSDIIAK, peptide start residue: 95)”, for which the log2 fold change is -0.126.

On to “UniProt Q62264 (peptide sequence: SICVEVDHGLLPREEWQAK, peptide start residue: 65)”, for which the log2 fold change was -0.174.

For “UniProt Q61334 (peptide sequence: AQNDVMTMK, peptide start residue: 200)”, the log2 fold change was found to be 0.142.

On to “UniProt Q62178 (peptide sequence: GNPEWVCTRGPMAR, peptide start residue: 540)”, for which the log2 fold change was -0.421.

With “UniProt Q64442 (peptide sequence: AVEAFETAK, peptide start residue: 331)”, the log2 fold change worked out at 0.149.

As for “UniProt Q62377 (peptide sequence: ASHYDEYYGR, peptide start residue: 371)”, the log2 fold change is 0.0265.

Regarding “UniProt Q61581 (peptide sequence: GHCAPGMECVK, peptide start residue: 78)”, the log2 fold change was -0.941.

Regarding “UniProt Q64092 (peptide sequence: YHLQQAR, peptide start residue: 188)”, the log2 fold change is -0.164.
